In PubChem BioAssay AID2810 (NMMLSC, 2010) one finds double positive events and percent response (vesicle binding) data, which are given here for 40 compounds.

The test can be described thus: modulators of CD8 T cell-vesicle binding, confirmation, cherry-picked primary hits, two concentrations (AID 2810).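 On all read-outs here: lower values mean blocking of vesicle binding.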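 On percent response (vesicle binding): ratio of mean FL2 vesicle stain of CD8+ cells to that row's control.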 The settings on record: 2C CD8+ T cell-vesicle binding, flow cytometry; for double positive events: CD8+/vesicle+ events.
Where [1] appears, read: at 15.4 µM, stronger effect = lower value.

Some of the results follow. Shown are side measurements of this screen, not its main read-out; they come without a call.

As for `COC1CCN(Cc2cn(Cc3ccccc3)nc2-c2cc3ccccc3o2)CC1`, the double positive events was determined as 9.5% (at 7.7 µM) and 18.9% under setting [1]. The compound further yielded a percent response (vesicle binding) (at 7.7 µM) of 144%.

For the setting “at 7.7 µM”, `CCC[C@@H]1Cc2ccccc2N1C(C)=O` displayed a double positive events of 27.5% and a percent response (vesicle binding) of 271%. Also, the double positive events under setting [1] was 5%.

Turning to `CC1CCCN(S(=O)(=O)c2ccc(C(=O)Nc3ccccc3-c3nc4ccccc4[nH]3)cc2)C1` (stereo not given), for the setting “at 7.7 µM”, the double positive events was determined as 11.7% and the percent response (vesicle binding) came to 202%. The same compound displayed a double positive events under setting [1] of 11.5%.

`CN1C(=S)SC(/[N+]([O-])=C\c2ccccc2F)C1(C)C` (stereo not given): under “at 7.7 µM”, the double positive events was 22% and the percent response (vesicle binding) was 620%. The same compound registered a double positive events under setting [1] of 26.9%.

Where the note is “at 7.7 µM”, `CN(C1=C(NC(=O)c2ccc(Cl)cc2)C(=O)c2ccccc2C1=O)c1ccccc1` came in with a double positive events of 15.4% and a percent response (vesicle binding) of 682%. Under setting [1], this compound gave a double positive events of 28.8%.

As for `c1ccc(Oc2cccc(CN3CCCCC3)c2)cc1`, the double positive events was 25.4% (at 7.7 µM) and 26.1% under setting [1]. The percent response (vesicle binding) (at 7.7 µM) amounted to 485%.

As for `O=C(CN1C(=O)c2ccc([N+](=O)[O-])cc2C1=O)Nc1nnc(C2CC2)s1`, the double positive events (at 7.7 µM) amounted to 37.1% and the double positive events under setting [1] is 12.6%. The percent response (vesicle binding) (at 7.7 µM) came out at 756%.

As for `COC(=O)c1ccc(/C=N/Nc2nc(C)c(C)s2)cc1`, for the setting “at 7.7 µM”, the double positive events worked out at 12.6% and the percent response (vesicle binding) was found to be 147%. Also, under setting [1], the double positive events was 30.9%.

With `O=C(c1ccc(COc2c(F)c(F)cc(F)c2F)o1)N1CCN(c2ccccc2)CC1`, under “at 7.7 µM”, the double positive events turned out to be 16.7% and the percent response (vesicle binding) was 234%. Under setting [1], the double positive events worked out at 23.8%.

As for `CCNc1nc(NCC)nc(N(n2cnnc2)S(=O)(=O)c2ccc(C)cc2)n1`, where the note is “at 7.7 µM”, the double positive events was 14.5% and the percent response (vesicle binding) came to 178%. The double positive events under setting [1] is 19.9%.

The compound `COc1ccc(-n2nc([N+](=O)[O-])c(=NCc3cccnc3)n2O)cc1` showed a double positive events (at 7.7 µM) of 18.9% and a double positive events under setting [1] of 19.6%. This compound came in with a percent response (vesicle binding) (at 7.7 µM) of 170%.

On to `CCOc1ccc(C(=O)Nc2nnc(C3=COCCO3)o2)cc1`, for which, where the note is “at 7.7 µM”, the double positive events amounted to 13.3% and the percent response (vesicle binding) stood at 504%. The double positive events under setting [1] amounted to 17.3%.

With `Cc1ccccc1C(C(=O)NC1CCCCC1)N(C(=O)c1ccccn1)c1cccnc1` (stereo not given), the double positive events turned out to be 9.1% (at 7.7 µM) and 30.8% under setting [1]. Besides, the percent response (vesicle binding) (at 7.7 µM) is 87.5%.

Turning to `CON(C)C(=O)/C=C/CCCCNC(=O)OC(C)(C)C`, under “at 7.7 µM”, the double positive events worked out at 25% and the percent response (vesicle binding) is 188%. Also, the double positive events under setting [1] amounted to 18.7%.

As for `Cc1c(C(=O)NCCN2C(=O)S/C(=C\c3cccnc3)C2=O)cccc1[N+](=O)[O-]`, the double positive events reads like this: (at 7.7 µM) 18.3%; under setting [1], 20.5%. In addition, the percent response (vesicle binding) (at 7.7 µM) came out at 735%.

In the case of `COCCn1nnnc1C(c1cc2ccc(OC)cc2[nH]c1=O)N1CCc2ccccc2C1` (stereo not given), the double positive events (at 7.7 µM) was found to be 33.1% and the double positive events under setting [1] is 19.3%. Under “at 7.7 µM”, this compound registered a percent response (vesicle binding) of 359%.

Turning to `O=C(NNC(=O)c1ccc(Cl)nc1)c1ccc(Br)cc1`, the double positive events (at 7.7 µM) turned out to be 38.1% and the double positive events under setting [1] came out at 29.1%. The same compound came in with a percent response (vesicle binding) (at 7.7 µM) of 306%.

Under “at 7.7 µM”, `Cc1cc(S(=O)(=O)N2CCN(Cc3ccccc3)CC2)c(C)s1` registered a double positive events of 18.4% and a percent response (vesicle binding) of 258%. The same compound returned a double positive events under setting [1] of 28.3%.

Where the note is “at 7.7 µM”, `O=C(COC(=O)CNC(=O)C1CCCCC1)Nc1ccccc1Cl` had a double positive events of 17.1% and a percent response (vesicle binding) of 216%. The same compound registered a double positive events under setting [1] of 29%.

Where the note is “at 7.7 µM”, `Cc1ccc2nc(-c3cccc(SC4CCCCC4)c3)c(NC3CCCCC3)n2c1` came in with a double positive events of 8.8% and a percent response (vesicle binding) of 146%. The compound also gave a double positive events under setting [1] of 11.3%.

Consider `CCOc1cc(/C=C2\C(=N)N3N=CSC3=NC2=O)ccc1OS(=O)(=O)c1ccccc1`, for which the double positive events was determined as 28.4% (at 7.7 µM) and 16.8% under setting [1]. This compound had a percent response (vesicle binding) (at 7.7 µM) of 413%.

For the setting “at 7.7 µM”, `CCOC(=O)c1c(C)oc2c(CN3CCN(C)CC3)c(Br)c(OC)c(O)c12` came in with a double positive events of 11.4% and a percent response (vesicle binding) of 197%. In addition, under setting [1], the double positive events worked out at 16.4%.

For the setting “at 7.7 µM”, `N=c1c(S(=O)(=O)c2ccccc2)cc2c(=O)n3ccccc3nc2n1CC1CCCO1` (stereo not given) yielded a double positive events of 30.8% and a percent response (vesicle binding) of 265%. The double positive events under setting [1] was determined as 17.4%.

With `CC12CC3(C)CC(C)(C1)CC(C(N)=O)(C2)C3`, under “at 7.7 µM”, the double positive events was 9.4% and the percent response (vesicle binding) was found to be 132%. Further, the double positive events under setting [1] turned out to be 10.3%.

In the case of `Cc1ccc(S(=O)(=O)N2CCN(c3nc4ccccc4nc3-n3nc(C)cc3C)CC2)cc1`, the double positive events by setting is: (at 7.7 µM) 10.5%; under setting [1], 34.4%. Further, the percent response (vesicle binding) (at 7.7 µM) came out at 305%.

Under “at 7.7 µM”, `CCN(C(=O)Cn1c(=O)oc2ccccc21)c1cccc(C(F)(F)F)c1` displayed a double positive events of 11.5% and a percent response (vesicle binding) of 263%. Also, the double positive events under setting [1] came to 13.9%.

For the compound `Cn1c(SCC(=O)Nc2ccc(N3CCOCC3)cc2)nnc1C(F)(F)F`, the double positive events runs as follows: (at 7.7 µM) 24.7%; under setting [1], 25.7%. The percent response (vesicle binding) (at 7.7 µM) was 199%.

`CCOP(=O)(OCC)c1nc(-c2cccc3ccccc23)oc1N1CCOCC1`: where the note is “at 7.7 µM”, the double positive events came to 10.7% and the percent response (vesicle binding) was 112%. The compound further yielded a double positive events under setting [1] of 9.7%.

With `C/C(=N/NC(=O)c1ccc2c(c1)OCO2)c1cccc(NC(=O)C(C)(C)C)c1`, for the setting “at 7.7 µM”, the double positive events is 12.9% and the percent response (vesicle binding) came to 145%. Under setting [1], this compound registered a double positive events of 14.4%.

For the compound `FC(F)(F)c1cccc(Cc2noc(CN3CCC(c4ccncc4)CC3)n2)c1`, where the note is “at 7.7 µM”, the double positive events came out at 25.9% and the percent response (vesicle binding) was 377%. The double positive events under setting [1] was 31.9%.

For `O=C(CCC(=O)c1ccccc1)Nc1cccnc1`, the double positive events reads like this: (at 7.7 µM) 14.9%; under setting [1], 25.8%. The compound also showed a percent response (vesicle binding) (at 7.7 µM) of 178%.

Turning to `O=C(O)c1ccc2oc(SCC(=O)N3CCCCC3)nc2c1`, for the setting “at 7.7 µM”, the double positive events is 30% and the percent response (vesicle binding) was 243%. Further, the double positive events under setting [1] was found to be 25.4%.

As for `COc1cc(OC)c(NC(=O)[C@@H]2CCC(=O)N2C2OC(=O)c3c2ccc(OC)c3OC)cc1Cl` (stereo not given in full), where the note is “at 7.7 µM”, the double positive events turned out to be 17.5% and the percent response (vesicle binding) came out at 197%. The compound also displayed a double positive events under setting [1] of 33.7%.

For the setting “at 7.7 µM”, `CCc1ccc(NC(=O)[C@H](C)NC(=O)C2CCN(C(=O)[C@@H](N)Cc3ccccc3)CC2)cc1` returned a double positive events of 12.7% and a percent response (vesicle binding) of 336%. For the same compound, the double positive events under setting [1] is 31%.

Turning to `Cc1cc(C(F)F)nn1CC(=O)N1CCSCC1`, under “at 7.7 µM”, the double positive events stood at 9.4% and the percent response (vesicle binding) was 390%. Besides, under setting [1], the double positive events amounted to 37.2%.

`Cc1ccc(Cl)cc1N1CCN(C(=O)C2CCN(c3nnc(-n4cccc4)s3)CC2)CC1`: the double positive events is, setting by setting: (at 7.7 µM) 8.8%; under setting [1], 14.1%. Also, under “at 7.7 µM”, the percent response (vesicle binding) worked out at 162%.

As to `COc1ccc(N2CCN(C(=O)Cc3nn(C)c(=O)c4ccccc34)CC2)cc1`, the double positive events runs as follows: (at 7.7 µM) 21.8%; under setting [1], 17.4%. The compound further yielded a percent response (vesicle binding) (at 7.7 µM) of 188%.

Take `Cn1c(Cn2cnc([N+](=O)[O-])n2)nnc1SCC(=O)Nc1ccccc1`: the double positive events (at 7.7 µM) was 33.6% and the double positive events under setting [1] turned out to be 13%. Where the note is “at 7.7 µM”, the percent response (vesicle binding) came to 171%.

For the setting “at 7.7 µM”, `CCOC(=O)[C@H]1[C@H]2COc3cc(OC)ccc3[C@@H]2N2C(=O)CN(CC3CCCO3)C(=O)[C@@]12C` (stereo not given in full) displayed a double positive events of 13.1% and a percent response (vesicle binding) of 438%. The compound further came in with a double positive events under setting [1] of 18.4%.

Consider `CCOC(=O)c1cn(CC)c2cc(Cl)c([N+](=O)[O-])cc2c1=O`, for which the double positive events runs as follows: (at 7.7 µM) 20.9%; under setting [1], 1.4%. Also, the percent response (vesicle binding) (at 7.7 µM) is 326%.
